Measured values taken from patent US20100069481A1, “METHODS AND COMPOSITIONS FOR THE TREATMENT OF CANCER” (Bionovo, Inc., priority 2008, published 2010).
At least one compound was matched to its structure with a doubt left.

System: breast cancer cells (MDA MB 231, SKBr3)
Assay: DNA damage, comet assay
Assay type: cell-based, human
Settings: Table 11
Procedure: 1. Induction of the loss of the mitochondrial transmembrane potential (MTP). […] 2. Induction of reactive oxygen species (ROS). […] 3. […] 4. Compounds were tested for induction of DNA damage using test known as comet assay that allows detection of DNA damage in individual cells. […] 6. The mode of cell death (i.e., apoptosis versus necrosis) was studied using several criteria: conversion of cells to positivity for binding Annexin V; DNA fragmentation (characteristic of apoptotic death) and decrease in cellular ATP levels (commonly observed during necrotic death) (FIG. 5). 1. Induction of the loss of the mitochondrial transmembrane potential (MTP). […] 2. Induction of reactive oxygen species (ROS). […] 3. […] 4. Compounds were tested for induction of DNA damage using test known as comet assay that allows detection of DNA damage in individual cells. […] 6. The mode of cell death (i.e., apoptosis versus necrosis) was studied using several criteria: conversion of cells to positivity for binding Annexin V; DNA fragmentation (characteristic of apoptotic death) and decrease in cellular ATP levels (commonly observed during necrotic death) (FIG. 5).

O=c1cc(-c2ccc(O)cc2)oc2cc(O)cc(O)c12 [cmpd 4]
DNA damage: −
